For assay [1], the target named is T1, FLAG-tagged JADE3 (human) (UniProt Q92613).
T1 sequence: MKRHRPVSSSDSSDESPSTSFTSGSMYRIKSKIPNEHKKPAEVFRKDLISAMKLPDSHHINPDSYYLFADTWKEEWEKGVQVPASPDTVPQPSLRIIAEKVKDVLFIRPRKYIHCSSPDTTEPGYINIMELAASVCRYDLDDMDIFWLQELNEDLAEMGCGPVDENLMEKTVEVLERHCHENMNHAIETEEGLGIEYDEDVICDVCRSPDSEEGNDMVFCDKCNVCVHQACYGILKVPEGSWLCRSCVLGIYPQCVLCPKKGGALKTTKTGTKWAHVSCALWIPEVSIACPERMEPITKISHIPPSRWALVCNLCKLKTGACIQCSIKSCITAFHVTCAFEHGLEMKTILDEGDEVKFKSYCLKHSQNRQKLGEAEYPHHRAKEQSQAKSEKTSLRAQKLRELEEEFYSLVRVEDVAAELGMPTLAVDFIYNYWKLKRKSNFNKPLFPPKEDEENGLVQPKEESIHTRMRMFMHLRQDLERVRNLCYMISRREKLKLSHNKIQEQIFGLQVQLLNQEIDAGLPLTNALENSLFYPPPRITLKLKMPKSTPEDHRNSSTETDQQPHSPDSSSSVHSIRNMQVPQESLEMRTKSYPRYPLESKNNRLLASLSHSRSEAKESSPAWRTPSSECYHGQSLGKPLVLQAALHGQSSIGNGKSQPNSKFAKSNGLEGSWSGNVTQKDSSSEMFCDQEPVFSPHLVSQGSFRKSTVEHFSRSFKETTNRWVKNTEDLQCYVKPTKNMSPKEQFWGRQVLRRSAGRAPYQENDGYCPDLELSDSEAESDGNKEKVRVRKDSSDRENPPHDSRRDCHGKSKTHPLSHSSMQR
Briefly: co-IP.

Chains of the proteins cited; added tags and fusions are not shown.
UniProt Q9NQC1: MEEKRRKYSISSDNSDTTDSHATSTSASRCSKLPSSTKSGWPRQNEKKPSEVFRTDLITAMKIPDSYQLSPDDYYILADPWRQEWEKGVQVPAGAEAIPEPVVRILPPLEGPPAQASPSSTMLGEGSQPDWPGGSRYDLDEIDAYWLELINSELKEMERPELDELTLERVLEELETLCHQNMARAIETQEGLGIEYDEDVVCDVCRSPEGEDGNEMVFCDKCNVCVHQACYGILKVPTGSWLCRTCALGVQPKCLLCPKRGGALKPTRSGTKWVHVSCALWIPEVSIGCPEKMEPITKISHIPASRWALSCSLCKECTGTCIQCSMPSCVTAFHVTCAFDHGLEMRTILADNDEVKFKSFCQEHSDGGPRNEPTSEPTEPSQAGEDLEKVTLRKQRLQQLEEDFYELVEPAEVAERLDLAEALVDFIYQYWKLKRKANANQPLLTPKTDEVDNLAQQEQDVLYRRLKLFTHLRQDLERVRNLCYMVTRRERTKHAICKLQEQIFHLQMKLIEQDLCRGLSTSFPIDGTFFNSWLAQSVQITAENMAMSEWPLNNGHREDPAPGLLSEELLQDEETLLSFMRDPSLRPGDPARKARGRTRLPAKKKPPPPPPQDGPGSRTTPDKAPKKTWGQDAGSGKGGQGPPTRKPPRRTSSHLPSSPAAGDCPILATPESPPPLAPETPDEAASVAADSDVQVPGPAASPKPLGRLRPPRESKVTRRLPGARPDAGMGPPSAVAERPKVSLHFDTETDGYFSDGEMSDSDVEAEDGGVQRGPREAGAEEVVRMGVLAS

Assay [2] has as its target FLAG-tagged JADE2 (human) (UniProt Q9NQC1). As to the kind of experiment: co-IP.

These are yes or no findings as the source states them, for the method shown. Binding seen in cells or lysates may run through a third protein. Some entries that bind do so weakly or less than the wild type. Where a sequence is shown, tags or fusion partners need not be part of it.

Turning to “V5-tagged JADE2 (from UniProt Q9NQC1 1-790)”, the binding result in assay [1] and in assay [2] was “binds” in each case.

B1: V5-tagged NPHP4 (protein, UniProt O75161 1-1426)
chain: MNDWHRIFTQNVLVPPHPQRARQPWKESTAFQCVLKWLDGPVIRQGVLEVLSEVECHLRVSFFDVTYRHFFGRTWKTTVKPTKRPPSRIVFNEPLYFHTSLNHPHIVAVVEVVAEGKKRDGSLQTLSCGFGILRIFSNQPDSPISASQDKRLRLYHGTPRALLHPLLQDPAEQNRHMTLIENCSLQYTLKPHPALEPAFHLLPENLLVSGLQQIPGLLPAHGESGDALRKPRLQKPITGHLDDLFFTLYPSLEKFEEELLELHVQDHFQEGCGPLDGGALEILERRLRVGVHNGLGFVQRPQVVVLVPEMDVALTRSASFSRKVVSSSKTSSGSQALVLRSRLRLPEMVGHPAFAVIFQLEYVFSSPAGVDGNAASVTSLSNLACMHMVRWAVWNPLLEADSGRVTLPLQGGIQPNPSHCLVYKVPSASMSSEEVKQVESGTLRFQFSLGSEEHLDAPTEPVSGPKVERRPSRKPPTSPSSPPAPVPRVLAAPQNSPVGPGLSISQLAASPRSPTQHCLARPTSQLPHGSQASPAQAQEFPLEAGISHLEADLSQTSLVLETSIAEQLQELPFTPLHAPIVVGTQTRSSAGQPSRASMVLLQSSGFPEILDANKQPAEAVSATEPVTFNPQKEESDCLQSNEMVLQFLAFSRVAQDCRGTSWPKTVYFTFQFYRFPPATTPRLQLVQLDEAGQPSSGALTHILVPVSRDGTFDAGSPGFQLRYMVGPGFLKPGERRCFARYLAVQTLQIDVWDGDSLLLIGSAAVQMKHLLRQGRPAVQASHELEVVATEYEQDNMVVSGDMLGFGRVKPIGVHSVVKGRLHLTLANVGHPCEQKVRGCSTLPPSRSRVISNDGASRFSGGSLLTTGSSRRKHVVQAQKLADVDSELAAMLLTHARQGKGPQDVSRESDATRRRKLERMRSVRLQEAGGDLGRRGTSVLAQQSVRTQHLRDLQVIAAYRERTKAESIASLLSLAITTEHTLHATLGVAEFFEFVLKNPHNTQHTVTVEIDNPELSVIVDSQEWRDFKGAAGLHTPVEEDMFHLRGSLAPQLYLRPHETAHVPFKFQSFSAGQLAMVQASPGLSNEKGMDAVSPWKSSAVPTKHAKVLFRASGGKPIAVLCLTVELQPHVVDQVFRFYHPELSFLKKAIRLPPWHTFPGAPVGMLGEDPPVHVRCSDPNVICETQNVGPGEPRDIFLKVASGPSPEIKDFFVIIYSDRWLATPTQTWQVYLHSLQRVDVSCVAGQLTRLSLVLRGTQTVRKVRAFTSHPQELKTDPKGVFVLPPRGVQDLHVGVRPLRAGSRFVHLNLVDVDCHQLVASWLVCLCCRQPLISKAFEIMLAAGEGKGVNKRITYTNPYPSRRTFHLHSDHPELLRFREDSFQVGGGETYTIGLQFAPSQRVGEEEILIYINDHEDKNEEAFCVKVIYQ
For B1, the binding entry in assay [1] and in assay [2] was “binds” each time.
